# Results of single-concentration screens

Chains of the proteins cited; added tags and fusions are not shown. Residues count along the entry.
UniProt Q4DA54, 1-478: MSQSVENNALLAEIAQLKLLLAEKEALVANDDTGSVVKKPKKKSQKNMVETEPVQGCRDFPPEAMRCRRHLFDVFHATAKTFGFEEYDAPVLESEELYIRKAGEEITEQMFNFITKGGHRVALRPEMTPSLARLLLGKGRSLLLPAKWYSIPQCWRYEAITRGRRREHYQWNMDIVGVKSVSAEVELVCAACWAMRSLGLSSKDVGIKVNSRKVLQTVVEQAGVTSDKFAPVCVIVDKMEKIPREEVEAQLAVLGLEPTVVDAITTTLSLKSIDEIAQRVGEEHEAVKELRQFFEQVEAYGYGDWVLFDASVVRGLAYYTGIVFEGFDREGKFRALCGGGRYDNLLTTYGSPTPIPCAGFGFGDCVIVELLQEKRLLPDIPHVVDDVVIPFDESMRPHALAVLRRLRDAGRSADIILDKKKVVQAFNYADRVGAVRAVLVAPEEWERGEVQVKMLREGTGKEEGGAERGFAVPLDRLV
UniProt P9WNZ1, whole entry: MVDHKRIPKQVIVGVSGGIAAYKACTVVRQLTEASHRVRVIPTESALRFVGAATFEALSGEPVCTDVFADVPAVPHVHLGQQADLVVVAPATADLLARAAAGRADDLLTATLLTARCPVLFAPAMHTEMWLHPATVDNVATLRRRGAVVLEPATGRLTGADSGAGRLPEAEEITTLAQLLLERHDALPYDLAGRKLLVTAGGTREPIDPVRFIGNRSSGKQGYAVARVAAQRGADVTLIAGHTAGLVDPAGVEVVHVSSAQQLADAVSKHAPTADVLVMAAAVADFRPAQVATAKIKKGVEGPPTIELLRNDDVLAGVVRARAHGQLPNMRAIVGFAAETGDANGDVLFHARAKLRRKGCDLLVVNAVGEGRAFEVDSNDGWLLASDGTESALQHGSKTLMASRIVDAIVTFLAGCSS
UniProt P9WPC5, whole entry: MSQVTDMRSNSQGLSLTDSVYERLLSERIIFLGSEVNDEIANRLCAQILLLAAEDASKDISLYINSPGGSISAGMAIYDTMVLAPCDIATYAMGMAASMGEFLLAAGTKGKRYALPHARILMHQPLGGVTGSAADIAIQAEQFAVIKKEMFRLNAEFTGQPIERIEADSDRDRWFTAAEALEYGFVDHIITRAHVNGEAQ
UniProt P9WPC3, whole entry partner: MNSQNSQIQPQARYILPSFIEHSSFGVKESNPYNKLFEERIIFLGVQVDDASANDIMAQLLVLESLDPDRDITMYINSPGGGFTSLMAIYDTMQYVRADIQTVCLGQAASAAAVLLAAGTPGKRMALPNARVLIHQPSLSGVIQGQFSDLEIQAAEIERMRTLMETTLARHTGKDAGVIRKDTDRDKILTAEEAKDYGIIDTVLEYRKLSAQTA
UniProt Q8IDJ8, 1-583: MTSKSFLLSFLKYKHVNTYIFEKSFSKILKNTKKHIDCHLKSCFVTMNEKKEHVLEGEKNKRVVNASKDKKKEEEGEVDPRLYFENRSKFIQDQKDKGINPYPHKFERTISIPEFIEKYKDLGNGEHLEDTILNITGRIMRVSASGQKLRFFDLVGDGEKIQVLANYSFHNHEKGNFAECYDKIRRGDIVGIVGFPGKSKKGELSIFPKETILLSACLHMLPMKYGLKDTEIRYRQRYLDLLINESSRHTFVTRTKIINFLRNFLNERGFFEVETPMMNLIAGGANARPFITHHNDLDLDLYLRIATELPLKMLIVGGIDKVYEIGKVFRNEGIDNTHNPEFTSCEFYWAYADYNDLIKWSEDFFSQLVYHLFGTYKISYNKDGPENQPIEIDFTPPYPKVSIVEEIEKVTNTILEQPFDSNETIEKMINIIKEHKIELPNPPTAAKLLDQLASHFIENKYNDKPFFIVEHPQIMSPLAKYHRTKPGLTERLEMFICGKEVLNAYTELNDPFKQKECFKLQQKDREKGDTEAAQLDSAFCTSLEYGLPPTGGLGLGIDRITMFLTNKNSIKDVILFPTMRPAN

The values are deposited in ChEMBL (CHEMBL3988442, “University of Dundee, Small-Polar-MMV Screening Library” (2021)).

A: 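Cell assay of Leishmania donovani living inside macrophages; the read-out is not stated. Compounds at 30 µM. Direction is inferred from retests: higher values go with stronger inhibition. Size under these conditions: about 69,000 compounds, about 1,000 of them at 50% or above in at least one test.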
B: 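Enzyme assay of histidyl-tRNA synthetase; the read-out is not stated. Target: Histidine-tRNA ligase, Trypanosoma cruzi CL Brener (UniProt Q4DA54). Tested at 30 µM. The record gives no direction; compounds that gave an IC50 in retests scored well above the rest, so higher reads as stronger inhibition. Of about 69,000 compounds tested this way, about 31 (0.045%) reached 50% or more in at least one test.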
C: 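Enzyme assay of CoaBC with a phosphate dye (Biomol Green) read at 650 nm. Target: Coenzyme A biosynthesis protein CoaBC, Mycobacterium tuberculosis (UniProt P9WNZ1). Compounds at 30 µM. Higher reads as stronger inhibition, judged from the few compounds that gave an IC50. Most strong results did not repeat in a second test. Size under these conditions: about 67,000 compounds, about 40 of them at 50% or above in at least one test.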
D: 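ClpP1P2, Mycobacterium tuberculosis (UniProt P9WPC5 and UniProt P9WPC3). Protease assay of ClpP1P2, read by the AMC dye that it sets free. Tested at 50 µM. Higher reads as stronger inhibition, judged from the few compounds that gave an IC50. Most other retested compounds had strongly negative values. About 69,000 compounds were tested under these conditions; 0.015% (about 10) showed 50% or more at least once.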
E: 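Enzyme assay of the cytosolic lysyl-tRNA synthetase in 384-well plates, read by luminescence. Target: Lysine-tRNA ligase, Plasmodium falciparum 3D7 (UniProt Q8IDJ8). Concentration: 30 µM. Higher reads as stronger inhibition, judged from the few compounds that gave an IC50. Of about 69,000 compounds tested this way, about 49 (0.071%) reached 50% or more in at least one test.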

Values are the deposited “Percent Effect”, in %. How 0% and 100% were set is not recorded. Most values in the screen are low, and negative values occur. The compounds are a random part of those screened. Two or more numbers in one place are separate tests of the same structure; such repeats can differ widely. A dash means the value is not listed here; it may have been measured.

structure	A	B	C	D	E
CCc1nc(C)c(C(=O)N(C)Cc2cnc3ccccn23)o1	17.09	7.071	-2.813	-9.875	9.818
CCc1csc(C2CCCN(C(=O)c3c[nH]c(C)n3)C2)n1 (stereo not shown)	27.57	3.053	2.892	-1.839	3.582
Cc1[nH]c2c(F)cccc2c1CC(=O)NC1CCCCNC1=O (stereo not shown)	24.96	0	-0.6289	0.1151	4.92
Cc1noc(C)c1CN1CC2(CCN(C(=O)c3ccoc3C)C2)CC1=O (stereo not shown)	32.22	-0.4975	19.84	-10.47	5.771
CNC(=O)CC1CC2(CCNCC2)c2cc(F)ccc21 (stereo not shown)	44.01	-0.5025	0.3713	9.563	1.281
COCC(=O)N1CCN(S(=O)(=O)c2cccs2)[C@H]2CS(=O)(=O)C[C@H]21	-	10	3.802	21.15	4.928
Fc1ccc(F)c(CN2CCC(c3n[nH]c4ncccc34)CC2)c1.O=C(O)CC(O)(CC(=O)O)C(=O)O	6.721	-	-	-	-
OCCOc1cc(F)ccc1NCc1ccc(F)c(F)c1	1.969	4.972	3.883	-4.123	3.576
CN(C)CC1CN(c2ncnc3ccsc23)CCO1 (stereo not shown)	16.39	1.345	-0.5076	-8.682	3.734
O=C(O)C(F)(F)F.[H][C@]12CCC[C@@H](CNc3ncccn3)[C@@]1([H])CN(Cc1cnn(C)c1)C2	-6.908	-	-	-	-
[H][C@]12CC[C@]([H])(CN(CC(=O)N(C)C)C1)N(Cc1ccccc1C#N)C2	-4.592	-	-	-	-
CCCNCc1cn(C)nc1-c1cccnc1	-	0	-2.643	-15.94	4.368
CC(NCc1cc(O)c2cccc(F)c2n1)c1ccccc1O (stereo not shown)	-18.59	7.182	12.5	11.4	2.512
Cc1nnc(N2CCC(CS(N)(=O)=O)CC2)c(C#N)c1C	-21.73	2.642	6.923	10.27	2.151
O=C(O)C(F)(F)F.[H][C@@]12COC[C@]1([H])[C@H](OCc1csc(C)n1)CN2Cc1cnn(C)c1	2.664	-	-	-	-
NC(=O)CN1C(=O)CO[C@H]2CN(Cc3ccc(Cl)cc3)C[C@H]21	-	1.493	-20.24	13.56	2.502
Cc1cccc(N2CCOCC3(C2)CN(c2ccoc2)C(=O)CO3)n1.O=C(O)C(F)(F)F (stereo not shown)	18.4	-	-	-	-
N[C@H]1CN(S(=O)(=O)N2CCCC2)C[C@@H]1c1ccccc1	17.93	7.143	0.6046	-13.93	0.09991
CC(C)(C)c1ccn(C2(C(=O)O)CCN(c3nccc(N)n3)CC2)n1	-5.387	4.878	-7.595	-11.18	0.01173
Cc1nn(-c2ncnc3[nH]cnc23)c2c1C(C(C)C)CC(=O)N2 (stereo not shown)	-22.35	12.95	-16.67	-8.051	3.183
[H][C@]12CC[C@]([H])(CN(c3ncccc3C(N)=O)C1)N(Cc1ccccn1)C2=O	3.936 and -4.874	-	-	-	-
Cc1cccc(OCCNC(=O)CN2CCCC2c2noc(C)n2)c1 (stereo not shown)	22.97	5.294	-2.302	-9.93	-0.4136
O=C(CN1CCS(=O)(=O)CC1)Nc1ccc(N2CCCC2)nc1	0.5164	4.762	14.67	7.886	5.378
CCN(CC1CN(Cc2nc(C3CC3)no2)CCO1)c1cccnn1 (stereo not shown)	9.491	16.67	-14.46	-0.6986	2.242
CCn1ncc2c1C(COCC1CC1)N(C(=O)c1ccncn1)CC2.O=C(O)C(F)(F)F (stereo not shown)	14.43	-	-	-	-
CC(C)N1CCN(C(=O)C(C)n2cncn2)CC1 (stereo not shown)	24.57	3.725	1.615	17.61	1.226
CCNC(=O)C1CCN(Cc2csc(-c3ccc(C)o3)n2)CC1	20.31	1.88	6.527	5.228	2.202
O=C(c1ccc(C2CCCN2)s1)N1CC=CC1 (stereo not shown)	21.5	2.235	0.7712	3.219	0.7341
COc1cccc(Cn2ncc(N(C)CCc3ccccc3)cc2=O)c1	34.93	9.948	16.26	3.59	0.962
Cc1ncc(CNC(=O)N(C)Cc2ccc([S+](C)[O-])cc2)s1 (stereo not shown)	19.7	3.941	6.09	6.199	-0.1724
COc1cccc(CN2CC(O)CN(S(C)(=O)=O)CC2=O)c1OC (stereo not shown)	-8.646	5.618	0.7264	0.7334	3.96
O=C1NCC(C(=O)Nc2ncc(Cc3ccccc3)s2)N1 (stereo not shown)	-32.73	2.006	-0.3727	-27.94	-1.474
CCN1CCN(C2CCN(Cc3ccc(Cl)s3)CC2)C1=O	-19.18	2.02	1.621	-2.5	0.8215
Cc1nnc2n1CC(CNCc1nc(-c3ccsc3)no1)CC2 (stereo not shown)	-30.87	7.937	6.405	14.16	5.745
CCCOC(=O)c1ccc(-c2ccc(/C=C3\C(=O)NC(=N)N3C)o2)cc1	-5.374 and 3.136	0	3.038	8.035	1.375
Cn1ccnc1C(O)c1ccccc1N1CCN(CC2CCCC2)CC1 (stereo not shown)	26.96	-0.565	-0.2421	-11.61	-0.3981
Cn1ncc2c(=O)[nH]c(CN3CCCC3c3ccccc3Cl)nc21 (stereo not shown)	23.42	4.094	3.316	-4.76	-0.2241
Cn1nc(Cn2ccnc2)c2c1CN(Cc1ccoc1)C2.O=C(O)C(F)(F)F.O=C(O)C(F)(F)F	2.195	-	-	-	-
CCN(Cc1nc(C(C)C)no1)Cc1cccs1	7.933	-2.51	5.455	-11.17	4.377
CN1C(=O)CC(c2cnn(C)c2)C12CCN(CC1CCOCC1)CC2.O=C(O)C(F)(F)F (stereo not shown)	5.216	-	-	-	-
CC(C)CC(c1nc(-c2cnn(C)c2)no1)N1CCCCC1=O (stereo not shown)	8.713	-1.149	9.6	10	5.46
[H][C@@]12C[C@@H](c3noc(C)n3)O[C@]1([H])CN(Cc1ccc3c(c1)OCO3)C2	30.55	-	-	-	-
CN(CCCNC(=O)c1ccc(C#N)cc1)CC(F)(F)F	-15.08	-4.124	3.423	5.054	1.78
Cc1cccn2c(CNC(C)CCc3ccc(O)cc3)cnc12 (stereo not shown)	-14.47	7.143	0.8464	-13.47	2.448
O=C(C1NCCc2[nH]cnc21)N1CCC2(C=Cc3ccccc32)CC1 (stereo not shown)	22.66	7.2	-23.59	-11.62	2.517
CO[C@@H]1CCN(Cc2nccs2)C[C@@H]1Cc1cccc(C)c1.O=C(O)C(F)(F)F	45.96	-	-	-	-
NC(=O)CCN1CCc2onc(-c3ccccc3F)c2C1	-3.843	4.878	4.43	-8.392	13.85
Cc1ncncc1C(=O)N1CCCN(Cc2cnn(C(C)C)c2)CC1	17	5.155	0.489	-7.078	-1.852

For reference, 6 entries once more:

structure,A,B,C,D,E
[H][C@@]12C[C@@H](c3noc(C)n3)O[C@]1([H])CN(Cc1ccc3c(c1)OCO3)C2,30.55,-,-,-,-
CCNC(=O)C1CCN(Cc2csc(-c3ccc(C)o3)n2)CC1,20.31,1.88,6.527,5.228,2.202
CN1C(=O)CC(c2cnn(C)c2)C12CCN(CC1CCOCC1)CC2.O=C(O)C(F)(F)F (stereo not shown),5.216,-,-,-,-
O=C(O)C(F)(F)F.[H][C@]12CCC[C@@H](CNc3ncccn3)[C@@]1([H])CN(Cc1cnn(C)c1)C2,-6.908,-,-,-,-
CCn1ncc2c1C(COCC1CC1)N(C(=O)c1ccncn1)CC2.O=C(O)C(F)(F)F (stereo not shown),14.43,-,-,-,-
N[C@H]1CN(S(=O)(=O)N2CCCC2)C[C@@H]1c1ccccc1,17.93,7.143,0.6046,-13.93,0.09991